No constants are given. Whether binding was seen depends on the method and setting. Binding seen in cells or lysates may run through a third protein. These calls come from enrichment with a bait or labelling near it, and not all partners need be listed.
B1: transmembrane p24 trafficking protein 4 (TMED4) (protein, UniProt Q8R1V4 30-227)
chain: LYFHIGETEKRCFIEEIPDETMVIGNYRTQMWDKQKEVFLPSTPGLGMHVEVKDPDGKVVLSRQYGSEGRFTFTSHTPGDHQICLHSNSTRMALFAGGKLRVHLDIQVGEHANNYPEIAAKDKLTELQLRARQLLDQVEQIQKEQDYQRYREERFRLTSESTNQRVLWWSIAQTVILILTGIWQMRHLKSFFEAKKLV
B2: oligosaccharyltransferase complex noncatalytic subunit (OSTC) (protein, UniProt Q78XF5 1-149)
chain: METLYRVPFLVLECPNLKLKKPPWVHMPSAMTVYALVVVSYFLITGGIIYDVIVEPPSVGSMTDEHGHQRPVAFLAYRVNGQYIMEGLASSFLFTMGGLGFIILDRSNAPNIPKLNRFLLLFIGFVCVLLSFFMARVFMRMKLPGYLMG
B3: signal peptide peptidase like 2C (SPPL2C) (protein, UniProt A2A6C4 29-690)
chain: EYGLVRVVSKNWSKDYCVLYSSDYVNLPRDLHHAPLLSLHDGTKTPWCPDEDSFHQAQDSSPRQRPLHQTTTMVTRGNCSFYAKGWLAQDQGAQGLLIVSRARNQQCSDTISKPQDPSKPWPALTIPVAVLRYTDMLDIVSHTYGDTDVRVAMFAPLEPVTDYNMAIIFILAVGTVAAGGYWAGLMEANKLQRRQAQRGGGLGGHNQQQTVAAERSQRAWEDDDFEDAPMDFTPAMTGAVVTMSCSIMILLYFFYDCFVYVMIGIFSLGASTGLYSCLAPILCHLPLWRYQWVLPGQRVSVTWPLLLLAGLCAMVTVLWVIHRNEDHWAWLLQDTLGVAYCLFVLRRVRLPTFKNCTLFLLALLAFDVFFVFITPLFTKTGESIMVEVASGPADSSSHERLPMVLKVPRLSFSALTLCNQPFSILGFGDIVVPGFLVAYCHRFDMQVQSRQVYYMACTVAYAVGLLVTFVAMILMQMGQPALLYLVSSTLLTSLAVATCRQEFTLFWTGQGRAKIPAEPVAQPCIASAVGSKMKLEDAKDSRTTNRFEQAVDGESGDLESSTGDDMAEMVTLSEDEATSPEGHSESSEGWSDTNLDPNELPSGSPMALEAMLIPLIQPIPHPSELGHIRTQSRVHDSSLPWMGLHKRKGLKVKKSMSAQAPL
B4: transmembrane p24 trafficking protein 10 (TMED10) (protein, UniProt Q9D1D4 32-219)
chain: ISFHLPVNSRKCLREEIHKDLLVTGAYEITDQSGGAGGLRTHLKITDSAGHILYAKEDATKGKFAFTTEDYDMFEVCFESKGTGRIPDQLVILDMKHGVEAKNYEEIAKVEKLKPLEVELRRLEDLSESIVNDFAYMKKREEEMRDTNESTNTRVLYFSIFSMFCLIGLATWQVFYLRRFFKAKKLIE
B5: defender against cell death 1 (DAD1) (protein, UniProt P61804 1-113)
chain: MSASVVSVISRFLEEYLSSTPQRLKLLDAYLLYILLTGALQFGYCLLVGTFPFNSFLSGFISCVGSFILAVCLRIQINPQNKADFQGISPERAFADFLFASTILHLVVMNFVG

The chains behind the UniProt entries cited, without tags or fusion partners. Residues count along the entry.
UniProt Q9DBG6, residues 23-631: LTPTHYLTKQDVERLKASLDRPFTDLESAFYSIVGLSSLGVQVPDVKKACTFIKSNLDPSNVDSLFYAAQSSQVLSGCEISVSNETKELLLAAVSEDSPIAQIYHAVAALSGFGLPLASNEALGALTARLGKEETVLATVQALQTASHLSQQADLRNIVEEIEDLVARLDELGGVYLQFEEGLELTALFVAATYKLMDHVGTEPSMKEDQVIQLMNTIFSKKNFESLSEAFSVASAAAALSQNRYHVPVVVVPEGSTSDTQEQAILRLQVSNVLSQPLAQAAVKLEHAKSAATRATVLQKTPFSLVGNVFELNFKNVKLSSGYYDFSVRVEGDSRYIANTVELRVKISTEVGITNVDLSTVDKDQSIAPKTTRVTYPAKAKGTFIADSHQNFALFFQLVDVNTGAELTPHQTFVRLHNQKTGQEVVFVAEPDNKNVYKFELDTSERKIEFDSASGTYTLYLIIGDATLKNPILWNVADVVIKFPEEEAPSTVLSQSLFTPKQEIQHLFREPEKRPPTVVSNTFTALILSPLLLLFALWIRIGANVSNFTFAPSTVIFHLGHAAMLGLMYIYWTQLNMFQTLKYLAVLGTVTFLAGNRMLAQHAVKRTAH
UniProt P24369, residues 34-216: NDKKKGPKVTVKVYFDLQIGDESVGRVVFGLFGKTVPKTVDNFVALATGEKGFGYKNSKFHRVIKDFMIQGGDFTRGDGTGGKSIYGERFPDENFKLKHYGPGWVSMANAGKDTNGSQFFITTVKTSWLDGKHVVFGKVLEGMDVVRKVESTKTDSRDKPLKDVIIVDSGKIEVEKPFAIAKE
UniProt P27773, residues 25-505: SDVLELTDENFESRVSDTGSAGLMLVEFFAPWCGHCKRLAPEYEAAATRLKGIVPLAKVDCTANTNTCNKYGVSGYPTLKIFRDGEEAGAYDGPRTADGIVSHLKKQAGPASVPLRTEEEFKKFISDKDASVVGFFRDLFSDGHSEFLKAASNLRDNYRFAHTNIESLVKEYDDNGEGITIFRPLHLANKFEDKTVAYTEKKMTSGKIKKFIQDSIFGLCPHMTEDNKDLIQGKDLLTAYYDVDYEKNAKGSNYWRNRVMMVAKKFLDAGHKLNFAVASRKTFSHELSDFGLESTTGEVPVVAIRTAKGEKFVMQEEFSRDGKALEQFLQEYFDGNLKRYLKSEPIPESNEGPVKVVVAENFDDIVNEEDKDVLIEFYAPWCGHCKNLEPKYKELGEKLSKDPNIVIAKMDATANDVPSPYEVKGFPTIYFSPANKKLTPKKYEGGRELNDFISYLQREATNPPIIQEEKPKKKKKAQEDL

Experiments:
[1] = target: T1, 1700029I15Rik (mouse (endogenous in testis)) (UniProt Q8CF31); test: affinity purification with mass spectrometry; co-IP/MS from wild-type and knockout mouse testis lysates with antibody-crosslinked agarose resin; three biological replicates; hits specific to wild type in at least two replicates
T1 sequence: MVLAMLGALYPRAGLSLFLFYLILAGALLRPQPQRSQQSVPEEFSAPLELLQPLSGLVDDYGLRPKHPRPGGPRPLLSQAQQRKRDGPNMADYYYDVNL

[2] = target: T1, 1700029I15Rik (mouse (endogenous in testis)); test: affinity purification with mass spectrometry; co-IP/MS from mouse testes with non-crosslinked magnetic beads; interactions scored by the specificity of detected spectra

| Molecule | binding [1] | binding [2] |
| --- | --- | --- |
| ribophorin II (RPN2) (from UniProt Q9DBG6 23-631) | binds | – |
| peptidyl-prolyl cis–trans isomerase B (PPIB) (from UniProt P24369 34-216) | binds | – |
| protein disulfide isomerase family A member 3 (PDIA3) (from UniProt P27773 25-505) | binds | binds |
| B1 | binds | – |
| B2 | binds | – |
| B3 | – | binds |
| B4 | binds | – |
| B5 | binds | – |

— paper PMC9974436
